# Assay results as given in the supplement of paper PMC12823440, “Inhibitors supercharge kinase turnover through native proteolytic circuits” (Nature, 2025).
# Amino acid sequences for entries named in this document (tags omitted). A change or cut given only in a name is not applied to a line headed by its entry.
# UniProt P07947, whole entry, looked up: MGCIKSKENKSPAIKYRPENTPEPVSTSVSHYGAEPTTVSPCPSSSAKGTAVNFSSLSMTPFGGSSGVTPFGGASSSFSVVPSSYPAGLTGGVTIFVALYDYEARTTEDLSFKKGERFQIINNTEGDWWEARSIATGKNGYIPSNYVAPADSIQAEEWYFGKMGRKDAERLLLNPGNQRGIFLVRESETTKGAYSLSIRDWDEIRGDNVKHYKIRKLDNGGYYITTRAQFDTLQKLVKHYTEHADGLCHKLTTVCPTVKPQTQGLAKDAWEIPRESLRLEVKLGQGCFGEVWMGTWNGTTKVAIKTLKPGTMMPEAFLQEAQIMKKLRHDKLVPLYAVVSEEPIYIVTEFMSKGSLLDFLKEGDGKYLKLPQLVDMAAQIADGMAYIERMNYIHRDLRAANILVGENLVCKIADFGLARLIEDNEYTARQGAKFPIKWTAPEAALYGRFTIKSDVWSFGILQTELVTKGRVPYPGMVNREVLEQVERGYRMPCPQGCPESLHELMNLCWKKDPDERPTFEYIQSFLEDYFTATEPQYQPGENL
# UniProt P43403: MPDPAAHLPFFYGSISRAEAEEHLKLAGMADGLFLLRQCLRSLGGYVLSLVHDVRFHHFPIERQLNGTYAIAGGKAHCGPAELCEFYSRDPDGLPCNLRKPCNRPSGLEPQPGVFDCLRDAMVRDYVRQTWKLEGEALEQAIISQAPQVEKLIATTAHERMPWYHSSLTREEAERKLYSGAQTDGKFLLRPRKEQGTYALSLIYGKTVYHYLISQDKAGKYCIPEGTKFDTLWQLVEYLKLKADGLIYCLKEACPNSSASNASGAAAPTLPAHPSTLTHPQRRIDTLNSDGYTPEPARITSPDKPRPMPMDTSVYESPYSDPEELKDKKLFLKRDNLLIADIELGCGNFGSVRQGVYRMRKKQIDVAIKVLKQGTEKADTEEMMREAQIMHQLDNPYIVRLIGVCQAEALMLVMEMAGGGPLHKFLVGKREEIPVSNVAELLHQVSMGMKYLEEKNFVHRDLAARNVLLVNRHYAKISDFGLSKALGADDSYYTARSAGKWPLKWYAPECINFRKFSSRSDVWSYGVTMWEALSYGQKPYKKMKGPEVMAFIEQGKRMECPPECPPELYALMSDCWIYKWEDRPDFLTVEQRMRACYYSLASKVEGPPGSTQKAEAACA
# UniProt P11802: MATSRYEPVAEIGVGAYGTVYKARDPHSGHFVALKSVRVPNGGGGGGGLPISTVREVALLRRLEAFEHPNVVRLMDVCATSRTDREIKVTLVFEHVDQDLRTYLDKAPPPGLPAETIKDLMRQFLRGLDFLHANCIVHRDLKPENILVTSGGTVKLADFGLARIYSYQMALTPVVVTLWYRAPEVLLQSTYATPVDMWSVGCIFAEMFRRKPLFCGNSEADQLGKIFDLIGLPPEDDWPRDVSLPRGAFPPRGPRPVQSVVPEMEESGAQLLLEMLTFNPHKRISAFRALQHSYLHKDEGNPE
# UniProt P50613: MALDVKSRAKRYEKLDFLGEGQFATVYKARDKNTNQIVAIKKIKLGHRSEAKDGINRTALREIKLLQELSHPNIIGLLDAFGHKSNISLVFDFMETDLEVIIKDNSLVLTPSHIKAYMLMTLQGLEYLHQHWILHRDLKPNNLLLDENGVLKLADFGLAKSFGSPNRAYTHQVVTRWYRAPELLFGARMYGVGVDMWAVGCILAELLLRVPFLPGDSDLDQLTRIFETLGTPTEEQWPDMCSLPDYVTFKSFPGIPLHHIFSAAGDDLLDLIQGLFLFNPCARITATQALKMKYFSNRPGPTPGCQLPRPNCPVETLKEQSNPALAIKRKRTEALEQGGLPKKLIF
# UniProt P50750, whole entry: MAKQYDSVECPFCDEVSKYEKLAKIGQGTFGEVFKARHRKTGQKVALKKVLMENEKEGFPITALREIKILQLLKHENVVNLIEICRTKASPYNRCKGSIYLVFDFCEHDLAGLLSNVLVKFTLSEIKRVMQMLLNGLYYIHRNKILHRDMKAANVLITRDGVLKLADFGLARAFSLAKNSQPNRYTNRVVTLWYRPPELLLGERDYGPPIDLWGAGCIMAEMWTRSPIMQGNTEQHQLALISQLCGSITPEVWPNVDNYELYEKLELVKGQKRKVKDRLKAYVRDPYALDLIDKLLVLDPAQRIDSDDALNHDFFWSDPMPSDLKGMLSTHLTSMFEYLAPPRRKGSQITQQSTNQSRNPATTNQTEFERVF
# Where a name gives a salt, the structure may show the parent alone. This is one part of the list. The calls rarely recur for the same compound in another form.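 In K562 cells expressing nanoluciferase-fused kinases, luminescence was recorded at 4 h intervals between 2 and 18 h, normalized as percent of control with DMSO at 100% and a positive control at 0%. A significant (2 sigma) signal drop marks a time point as decreased. The authors' rule for a hit is not shown and takes in more than the number of time points.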
# Legend:
# Conditions in all cases: K562; 2-18 h
# YES1 = YES1 (UniProt P07947); assay: number of time points (of 5) at which kinase-Nluc abundance scored as decreased, DMSO-normalised (count); higher = more persistent destabilization
# ZAK = ZAK (UniProt Q9NYL2); assay: as above
# ZAP70 = ZAP70 (UniProt P43403); assay: as above
# CDK4 = CDK4 (UniProt P11802); assay: number of time points (of 4; 2 h point missing) at which kinase-Nluc abundance scored as decreased, DMSO-normalised (count); higher = more persistent destabilization
# CDK7 = CDK7 (UniProt P50613); assay: as above
# CDK9 = CDK9 (UniProt P50750); assay: as above
Compound,number of time points (YES1),number of time points (ZAK),number of time points (ZAP70),number of time points (CDK4),number of time points (CDK7),number of time points (CDK9)
O=C(/C=C/c1ccc(O)c(O)c1)c1ccc(O[C@@H]2O[C@H](CO)[C@@H](O)[C@H](O)[C@H]2O)c(O)c1O [Marein] (10 µM),0,0,0,0,0,0
CCN1CCN(Cc2ccc(Nc3ncc(F)c(-c4cc(F)c5nc(CO)n(C(C)C)c5c4)n3)nc2)CC1 [Abemaciclib metabolite M20] (2 µM),0,0,0,0,1,0
Cn1cc(-c2ccc(CNc3cc(-c4cnc5cc(OCCCN6CCCC6)ccn45)ncn3)cc2)cn1 (10 µM),0,0,0,0,0,0
Cc1ccc(Nc2cc(-c3cccc(N4C(=O)c5ccccc5C4=O)c3)ncn2)cc1NS(C)(=O)=O (10 µM),1,0,0,0,0,0
COc1cc2ncn(-c3cc(OCc4ccccc4S(C)(=O)=O)c(C#N)s3)c2cc1OC (10 µM),0,0,0,0,0,0
CN(CCNc1ccc2ncc(-c3ccc(C(N)=O)cc3)n2n1)C(=O)OC(C)(C)C (10 µM),0,0,0,0,0,0
CCN(CC)c1ccc2cc(C(=O)N3CCN(C(=O)C4=Cc5c(Br)cccc5S4(=O)=O)CC3)c(=O)oc2c1 (2 µM),0,0,0,0,0,0
COc1c(NC(=O)C(=O)c2ccc(OCCN3CCOCC3)c3ccccc23)cc(C(C)(C)C)cc1NS(C)(=O)=O (2.5 µM),0,0,0,0,0,0
Nc1ncnc2c1c(-c1ccc(Oc3ccccc3)cc1)nn2C1CCNCC1 [N-piperidine Ibrutinib (hydrochloride)] (10 µM),0,0,0,0,0,0
Cc1cc([C@H](C)Nc2ccccc2)c2oc(N3CCOCC3)cc(=O)c2c1 (10 µM),0,0,0,0,0,0
Fc1ccc(-c2nc(-c3ccccc3F)[nH]c2-c2ccncc2)cc1 (2.5 µM),0,0,0,0,0,0
COc1ccc(C2CC(c3ccccc3)=NN2c2ccc(S(N)(=O)=O)cc2)cc1 (stereo unspecified) (10 µM),0,0,0,0,0,0
CN1CCN(c2ccc(C(=O)Nc3cc(-c4cccc(NS(=O)(=O)c5ccccc5)c4)[nH]n3)cc2)CC1 [BPR1J-097 Hydrochloride] (2.5 µM),0,0,0,0,0,0
CC(c1ccc(-c2cnc3c(-c4ccc(S(N)(=O)=O)c5ccccc45)cnn3c2)cc1)N1CCCC1 (stereo unspecified) (2.5 µM),0,0,0,0,0,0
CC(C)=CC[C@H](O)C1=CC(=O)c2c(O)ccc(O)c2C1=O [(-)-Alkannin] (2.5 µM),0,0,0,0,0,0
"O=C(O)c1cc(O)ccc1O [2,5-Dihydroxybenzoic acid] (10 µM)",0,0,0,0,0,0
Cc1ccc(NC(=S)NNc2c([N+](=O)[O-])cc(C(F)(F)F)cc2[N+](=O)[O-])cc1Cl (10 µM),0,0,0,0,0,1
CNCc1ccccc1-c1csc([C@@H](C)Nc2nc(C)nc3cc(OC)c(OC)cc23)c1 (2.5 µM),0,0,0,0,3,0
C=C1C(=O)O[C@@H]2C[C@@]3(C)CCC[C@H](C)C3=C[C@H]12 [Alantolactone] (10 µM),0,0,0,0,0,0
C[C@]1(O)CCC[C@@H]1n1c(=O)c(C(F)F)cc2cnc(NC3CCN(S(C)(=O)=O)CC3)nc21 (10 µM),0,0,0,0,0,0
CN1CCN(c2ccc(Nc3ncc4nc(Nc5ccccc5)n([C@@H]5CCN(S(=O)(=O)C6CC6)C5)c4n3)cc2)CC1 (2.5 µM),0,0,0,0,0,0
Cc1ccc(Oc2nc3cc(-c4ccc5c(ccn5C)c4)c(Cl)cc3[nH]2)cc1C(=O)O (10 µM),0,0,0,0,0,0
COC1(c2sc3c(N4CCOCC4)nc(-c4cnc(N)nc4)nc3c2C)COC1 (2.5 µM),0,0,0,0,2,0

# Part of the list above, with bars between the fields.
Compound | number of time points (YES1) | number of time points (ZAK) | number of time points (ZAP70) | number of time points (CDK4) | number of time points (CDK7) | number of time points (CDK9)
CC(c1ccc(-c2cnc3c(-c4ccc(S(N)(=O)=O)c5ccccc45)cnn3c2)cc1)N1CCCC1 (stereo unspecified) (2.5 µM) | 0 | 0 | 0 | 0 | 0 | 0
Cc1ccc(Oc2nc3cc(-c4ccc5c(ccn5C)c4)c(Cl)cc3[nH]2)cc1C(=O)O (10 µM) | 0 | 0 | 0 | 0 | 0 | 0

# (list continues)

Compound,number of time points (YES1),number of time points (ZAK),number of time points (ZAP70),number of time points (CDK4),number of time points (CDK7),number of time points (CDK9)
Cc1ccc2nc(NC(=O)CSc3nc4c(c(=O)n3-c3ccccc3)SCC4)sc2c1 (2 µM),0,0,0,0,0,0
Cc1ccc(-c2c(C(=O)CF)n(CCCO)c3ncnc(N)c23)cc1 (10 µM),0,0,0,0,0,0
N[C@H](Cc1c[nH]c2ccccc12)C(=O)N/N=C/c1ccc2nccnc2c1 [Rhosin (hydrochloride)] (10 µM),0,0,0,0,0,0
Nc1ncnc2c1c(-c1ccc(Oc3ccccc3)cc1)nn2C1CCCNC1 (racemic) (2.5 µM),0,0,0,0,0,0
COc1ccc2c(c1O)OC(C)(C)c1c-2ccc2c1C(=O)N(c1ccc(C(=O)c3ccccc3)cc1)C2=O [Ampkinone] (10 µM),0,0,0,0,0,0
Cc1cc(-c2cc(OC(=O)c3ccccc3)ccc2Cl)cc2nnc(Nc3ccc(OCCN4CCCC4)cc3)nc12 (0.5 µM),0,0,0,0,0,0
CNC(=O)Nc1ccc(-c2cc(-c3ccnc(Nc4ccc(C)c(S(=O)(=O)N(C)C)c4)n3)ccn2)cc1 [hSMG-1 inhibitor 11e] (2.5 µM),1,0,0,0,0,0
O=C(Nc1ccc2[nH]nc(-c3ccncc3)c2c1)[C@@H]1CCN(CC(=O)N2CCN(c3ccc(-c4ncccn4)cc3)CC2)C1 (2.5 µM),0,0,0,0,0,0
CCc1cc(O)c(F)cc1-c1ccc2c(-c3nc4c([nH]3)CN(C3CCN(C)CC3)CC4)n[nH]c2c1 [JAK-IN-5 (hydrochloride)] (2 µM),0,0,0,0,0,0
CCN(CC)S(=O)(=O)c1ccc(OC)c(N2CCN(C(=O)c3ccc(F)cc3C(F)(F)F)CC2)c1 (10 µM),0,0,0,0,0,0
CCOc1ccc(C(=O)Nc2ncc([N+](=O)[O-])s2)cc1 (10 µM),0,0,0,0,1,0
COCCO[C@@H]1[C@H](O)[C@@H](CO)O[C@H]1n1cnc2c(=O)[nH]c(N)nc21 [2′-O-(2-Methoxyethyl)guanosine] (10 µM),0,0,0,0,0,0
CC/C=C\C/C=C\C/C=C\CCCCCCCC(=O)O [α-Linolenic acid] (10 µM),0,0,0,0,0,0
C/C(=C1/C(=O)Nc2ccc(NC(N)=O)cc21)c1ccc[nH]1 (10 µM),0,0,0,0,0,0
CC1=C2C(=O)O[C@@H](c3ccoc3)[C@]2(C)CCC1 [Fraxinellone] (10 µM),0,0,0,0,0,0
"O=C(/C=C/c1ccc(O)c(O)c1)OC1CC(OC(=O)/C=C/c2ccc(O)c(O)c2)(C(=O)O)CC(O)C1O (stereo unspecified) [1,3-Dicaffeoylquinic acid] (10 µM)",0,0,0,0,0,0
O=C(Nc1ccc(F)cc1F)[C@H](NC(=S)Nc1cc(C(F)(F)F)cc(C(F)(F)F)c1)c1ccccc1 (2.5 µM),0,0,0,0,0,0
Nc1ncc(-c2cccc(N3CCNCC3)c2)cc1C(=O)Nc1ccncc1 [PKC-iota inhibitor 1] (10 µM),0,0,0,0,0,0
Fc1ccc(-c2nc(-c3c(F)cccc3F)[nH]c2-c2ccncc2)cc1 (10 µM),0,0,0,0,0,0
O=C1c2ccc(Nc3ccc(F)cc3F)cc2CCc2ccc(OC[C@H](O)CO)cc21 [Skepinone-L] (2.5 µM),0,0,0,0,0,0
C[C@@H]1O[C@@H](O[C@H]2[C@H](Oc3cc(O)c4c(=O)cc(-c5ccc(O)cc5)oc4c3)O[C@H](CO)[C@@H](O)[C@@H]2O)[C@H](O)[C@H](O)[C@H]1O [Rhoifolin] (10 µM),0,0,0,0,0,0
C=CC(=O)Nc1cc2c(Nc3ccc(OCc4ccccn4)c(Cl)c3)ncnc2cc1OCCN1CCOCC1 (10 µM),0,0,0,0,4,0
CC(C)NC(=O)N1CC[C@H](NC2=Nc3cc(F)ccc3N(CC(F)F)c3ccc(Cl)cc32)C1 (10 µM),0,0,0,0,0,0
